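Phenotypic screen: M. tuberculosis growth, glucose 7H9 medium, 3 days; the read-out is not stated. Concentration: 50 µM. The record gives no direction; compounds that gave an IC50 in retests scored well above the rest, so higher reads as more growth inhibition. About 69,000 compounds were tested under these conditions; 1.1% (about 760) showed 50% or more at least once.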

Each number is a percent effect as filed.
The controls that fix the scale are not given in the record; negative values are as filed.
The compounds are a random part of those screened.
Two or more numbers in one place are separate tests of the same structure; such repeats can differ widely.

{"compound": "N#Cc1ccc(C(=O)O)nc1/C=C/c1cccc(Cl)c1", "percent effect": -7.087}
{"compound": "CCc1nc(CN(C)Cc2ncc(-c3cccs3)o2)cs1", "percent effect": "29.08 & 54.63"}
{"compound": "O=C(O)C(F)(F)F.O=C(O)C(F)(F)F.c1ccc(O[C@@H]2CO[C@@]3(CCCN(CC4CCOCC4)C3)C2)nc1", "percent effect": -16.24}
{"compound": "Cc1nc(NCC2CC2)nc2c1COCC21CCN(C)C1", "stereo": "stereo not shown", "percent effect": 19.7}
{"compound": "CC(NC(=O)Nc1cc(F)ccc1N1CCCCC1)c1nncn1C", "stereo": "stereo not shown", "percent effect": -10.64}
{"compound": "Cc1nnc2ccc(NCC3(N4CCCCC4)CCOCC3)nn12", "percent effect": 18.54}
{"compound": "Cc1cccc(N2CCN(CCC(=O)NCc3cnc(C)cn3)CC2)c1", "percent effect": -19.15}
{"compound": "[H][C@@]12C[C@H](C(=O)NCC(C)C)[C@@]([H])(CN(C(=O)NCC3CCCCC3)C1)O2", "percent effect": "-10.93 & 0.3365"}
{"compound": "CC(O)CN1CCN(Cc2coc(-c3ccccc3)n2)CC1", "stereo": "stereo not shown", "percent effect": "-15.43 & 4.298"}
{"compound": "CC(C)c1n[nH]c(C2CN(C(=O)CCCn3cccn3)CCO2)n1", "stereo": "stereo not shown", "percent effect": "-10.77 & -1.718"}
{"compound": "Cc1nc(N(C)CCCc2nccn2C)c2nc(C)oc2n1", "percent effect": -19.63}
{"compound": "Cc1[nH]c2c(F)cccc2c1CC(=O)NCCCc1csc(N)n1", "percent effect": 7.654}
{"compound": "Brc1csc(CNCc2nnc3n2CCC3)c1", "percent effect": 15.62}
{"compound": "CCCn1ccnc1CN1C[C@@H](NC(C)=O)[C@H](c2ccc(C)cc2)C1", "percent effect": 23.72}
{"compound": "NC(=O)c1cccc(CCNCc2cccs2)c1", "percent effect": 3.42}
{"compound": "COc1ccc(C(=O)N2C[C@@H](C(=O)O)[C@H](c3cccc(F)c3)C2)c(O)c1", "percent effect": "-9.905 & -66.38"}
{"compound": "CN(C)C(=O)C1OC2(CCN(C(=O)c3ccco3)CC2)c2ccccc21", "stereo": "stereo not shown", "percent effect": 5.164}
{"compound": "COCc1nc2n(n1)CCCC2Nc1nc(C(C)C)ns1", "stereo": "stereo not shown", "percent effect": -17.11}
{"compound": "Cc1ccc(CN2CCN(C(=O)c3ccc(CO)cc3)C(C)C2=O)cc1", "stereo": "stereo not shown", "percent effect": "0.3526 & -8.012"}
{"compound": "CC(C)CNS(=O)(=O)c1ccc(C(=O)N(C)CCc2cn[nH]c2)cc1", "percent effect": -6.974}
{"compound": "CCN1CCC(CC(=O)NCCc2nc(C)cc(C)n2)CC1", "percent effect": 0.548}
{"compound": "Cn1cnc2ccc(NC(=O)CC3CCN(S(C)(=O)=O)CC3)cc21", "percent effect": -60.15}
{"compound": "Cn1nc(CNC(=O)CC#N)c2c1CN(CC1CC1)CC2.O=C(O)C(F)(F)F", "percent effect": "-5.63 & 2.692"}
{"compound": "Cn1cnc(S(=O)(=O)NCC2CCN(C(=O)Oc3ccccc3)CC2)c1", "percent effect": -18.1}
{"compound": "C=C(C)COc1ccccc1C(=O)NCCc1nncn1C", "percent effect": -19.42}
{"compound": "CN(C)c1cccc(C(=O)N2CCCSCC2CN2CCCC2)c1", "stereo": "stereo not shown", "percent effect": 0.4173}
{"compound": "Cc1nn(CCC#N)c(C)c1CCC(=O)N(C(C)C)C1CC1", "percent effect": -9.292}
{"compound": "Cn1c(CS(=O)(=O)Cc2cccc(Cl)c2)cc(=O)n(C)c1=O", "percent effect": 5.333}
{"compound": "CCCOCC1CCN(C(=O)c2cnc(-c3csc(C)n3)nc2O)C1", "stereo": "stereo not shown", "percent effect": -14.4}
{"compound": "CC(c1nc(C2CC2)no1)N1CCN(Cc2cccnc2)CC1", "stereo": "stereo not shown", "percent effect": -5.655}
{"compound": "O=C(Nc1cccc(F)c1)N1CCN(Cc2noc(C3CC3)n2)CC1", "percent effect": "1.534 & 25.46"}
{"compound": "CCCc1n[nH]c(C2CN(C(=O)c3cc(F)ccc3OC)CCO2)n1", "stereo": "stereo not shown", "percent effect": 15.18}
{"compound": "COc1ccc(N2CCC(NC(=O)c3sccc3C)CC2)cc1", "percent effect": -11.05}
{"compound": "CCN(CC)C1CCN(C(=O)NCc2cccc(NC(C)=O)c2)C1", "stereo": "stereo not shown", "percent effect": -3.084}
{"compound": "CN(CCC(=O)N1CCc2sccc2C1)Cc1cnn(C)c1", "percent effect": -8.112}
{"compound": "CCNC(=O)C(C)NC(=O)Nc1ccccc1Cl", "stereo": "stereo not shown", "percent effect": "-22.02 & -8.757"}
{"compound": "COc1ccccc1CN1CC(OC)CN(C(=O)OCC(C)C)CC1=O", "stereo": "stereo not shown", "percent effect": 39.98}
{"compound": "Cn1c(NCC(=O)N2CCCC2)c(C#N)c(=O)n(C)c1=O", "percent effect": -33.17}
{"compound": "Cc1ccc(C(=O)NCCC2CN(C3CCCC3)CCO2)c(C)c1", "stereo": "stereo not shown", "percent effect": 2.087}
{"compound": "O=S(=O)(c1cc(F)ccc1F)N1CCCC1c1ccco1", "stereo": "stereo not shown", "percent effect": 20.47}
{"compound": "COCCn1ccc(=O)c(OCC(=O)Nc2ccc(Br)cc2)c1C", "percent effect": 18.9}
{"compound": "CN(C)CCCNC(=O)c1ccccc1NC(=O)c1cc(Cl)ccc1Cl", "percent effect": 20.01}
{"compound": "O=C(Nc1nc2c(s1)CCC2)NC1CCCC1", "percent effect": 36.74}
{"compound": "CNc1cc(C)nc(N2CCC3(CC2)[C@H](O)C[C@@H]3OC)n1", "percent effect": -11.85}
{"compound": "O=C(Cc1ccc2c(c1)CCO2)N1CCN(c2ccncc2)CC1", "percent effect": "-0.3891 & -55.96"}
{"compound": "Cc1cc(NC(=O)CCc2ccsc2)n(C)n1", "percent effect": "-16.23 & -4.032"}
{"compound": "CNC(=O)c1cccc(NC(=O)NCc2ccccc2)c1C", "percent effect": -11.7}
{"compound": "Cc1occc1C(=O)N1CCC2(CCN(Cc3nccs3)CC2)C1", "percent effect": "-4.117 & 23.5"}
{"compound": "COC(CNC(=O)C1CC1)c1ccc(C)s1", "stereo": "stereo not shown", "percent effect": 11.07}
{"compound": "COCCn1c2c(ccc1=O)CCN(Cc1ccoc1)CC2", "percent effect": 6.792}
{"compound": "CC1CN(C)CCN1C(=O)c1ccn(-c2ccc(F)cc2)n1", "stereo": "stereo not shown", "percent effect": 24.97}
{"compound": "COCCc1nc(CSc2ccncc2)n(C)n1", "percent effect": 34.8}
{"compound": "O=C(CCc1ccc(Cl)cc1)N[C@@H]1CC[C@@H](O)[C@@H]1O", "percent effect": -1.382}
{"compound": "CCc1noc(CN(CCc2ccccc2)C2CCN(C)CC2)n1", "percent effect": "-41.67 & -1.39"}
{"compound": "COc1cccc(N2CCN(C(=O)CCO)CC2=O)c1", "percent effect": -25.35}
{"compound": "Cc1ccc(-c2nc(CN3CCC(C(=O)N(C)C)CC3)cs2)o1", "percent effect": -28.12}
{"compound": "CC(C)n1cnnc1CN(C)C(=O)C1CCCN(C2CCN(C)CC2)C1", "stereo": "stereo not shown", "percent effect": 20.42}
{"compound": "COCCN1C(=O)CC(N2CCN(c3ccc(OC)cc3)CC2)C1=O", "stereo": "stereo not shown", "percent effect": "-2.205 & 14.3"}
{"compound": "CN1CCCC1c1ccc(N2CCOCC2)cn1", "stereo": "stereo not shown", "percent effect": -16.3}
{"compound": "[H][C@]12CC[C@@]3(N=C(C)NC3=O)[C@@]1([H])CN(C(=O)NCCc1ccccc1)C2", "percent effect": -1.406}

Once more, the final 8:

Compound	percent effect
O=C(CCc1ccc(Cl)cc1)N[C@@H]1CC[C@@H](O)[C@@H]1O	-1.382
CCc1noc(CN(CCc2ccccc2)C2CCN(C)CC2)n1	-41.67 & -1.39
COc1cccc(N2CCN(C(=O)CCO)CC2=O)c1	-25.35
Cc1ccc(-c2nc(CN3CCC(C(=O)N(C)C)CC3)cs2)o1	-28.12
CC(C)n1cnnc1CN(C)C(=O)C1CCCN(C2CCN(C)CC2)C1 (stereo not shown)	20.42
COCCN1C(=O)CC(N2CCN(c3ccc(OC)cc3)CC2)C1=O (stereo not shown)	-2.205 & 14.3
CN1CCCC1c1ccc(N2CCOCC2)cn1 (stereo not shown)	-16.3
[H][C@]12CC[C@@]3(N=C(C)NC3=O)[C@@]1([H])CN(C(=O)NCCc1ccccc1)C2	-1.406

Source: ChEMBL document CHEMBL3988442, “University of Dundee, Small-Polar-MMV Screening Library” (2021).